# Results from PubChem BioAssay AID328 (DTP/NCI, 2004).
# The list shows only some results of the screen, not a fair sample: its compounds were picked by chemical class. Not every dose and run of a compound is shown. T/C is the treated group as % of the vehicle group. Some entries give survivors of the animals treated and no T/C: the source holds a T/C of zero for them, seemingly a mark for toxic or unscored doses. Some survivor counts are full or nearly so, which does not show that the dose was tolerated: the source hardly ever lists a survival T/C far under the control, and the zero likely stands for such cases as well. Counts of survivors are from the toxicity check (mostly the fifth day) where no day follows; animals may have died later. Schedule codes are those of the source, taken here to give the interval after Q, in days (D) or hours (H), and the number of doses after X. Some complexes appear as separate parts, the way the source draws them; their charges need not add up. For survival time, this PubChem deposit counts one and a half times the control or more as active, and values a quarter to a half above the control carry no call in these data; other NCI protocols may use other cut-offs. Some entries were tested several times; the values are given in rising order. Some T/C values carry the count of animals alive at the toxicity check (mostly the fifth day); where neither a count nor a note follows, no animal had died by that day.
# Test system: BDF1 mice, P388 leukemia ip, median survival T/C
# Assay: NCI In Vivo Anticancer Drug Screen. Data for tumor model P388 Leukemia (intraperitoneal) in B6D2F1 (BDF1) mice
# Settings: T/C endpoint: median survival time, higher T/C = longer survival
# Method in brief: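 Reported as T/C, where T is the survival measurement in dosed animals and C the same measurement in vehicle controls.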
# [1] = dose: 75.0 mg/kg/injection, schedule: Q04DX003 (ip), vehicle: Klucel (hydroxypropylcellulose) (HPC)
compound,measurement,setting,value
CCOC(=O)COc1ccc(N(CCCl)CCCl)cc1,T/C,"dose: 0.92 mg/kg/injection, schedule: Q04DX003 (ip), vehicle: Klucel (hydroxypropylcellulose) (HPC)",109 % of control
same,T/C,"dose: 1.3 mg/kg/injection, schedule: Q04DX003 (ip), vehicle: Klucel (hydroxypropylcellulose) (HPC)",122 % of control
same,T/C,"dose: 2.1 mg/kg/injection, schedule: Q04DX003 (ip), vehicle: Klucel (hydroxypropylcellulose) (HPC)",125 % of control
same,T/C,"dose: 3.1 mg/kg/injection, schedule: Q04DX003 (ip), vehicle: Klucel (hydroxypropylcellulose) (HPC)",125 % of control
same,T/C,"dose: 4.8 mg/kg/injection, schedule: Q04DX003 (ip), vehicle: Klucel (hydroxypropylcellulose) (HPC)",180 % of control
same,T/C,"dose: 7.2 mg/kg/injection, schedule: Q04DX003 (ip), vehicle: Klucel (hydroxypropylcellulose) (HPC)",219 % of control
same,T/C,"dose: 11.0 mg/kg/injection, schedule: Q04DX003 (ip), vehicle: Klucel (hydroxypropylcellulose) (HPC)",200 % of control
same,T/C,"dose: 16.0 mg/kg/injection, schedule: Q04DX003 (ip), vehicle: Klucel (hydroxypropylcellulose) (HPC)",212 % of control
same,T/C,"dose: 33.0 mg/kg/injection, schedule: Q04DX003 (ip), vehicle: Klucel (hydroxypropylcellulose) (HPC)",186 and 240 % of control
same,T/C,"dose: 50.0 mg/kg/injection, schedule: Q04DX003 (ip), vehicle: Klucel (hydroxypropylcellulose) (HPC)",95 and 163 % of control
same,T/C,[1],127 % of control
same,survivor count,[1],4 of 6
C1C[N-]1.C1C[N-]1.C1C[N-]1.[Cl][Rh]([Cl])[Cl],T/C,"dose: 25.0 mg/kg/injection, schedule: Q01DX009 (ip), vehicle: Klucel (hydroxypropylcellulose) (HPC)",115 % of control
same,T/C,"dose: 25.0 mg/kg/injection, schedule: Q01DX009 (ip), vehicle: saline with Tween-80",109 % of control
same,T/C,"dose: 50.0 mg/kg/injection, schedule: Q01DX009 (ip), vehicle: Klucel (hydroxypropylcellulose) (HPC)",100 % of control [5 of 6 alive]
same,T/C,"dose: 50.0 mg/kg/injection, schedule: Q01DX009 (ip), vehicle: saline with Tween-80",100 % of control
same,T/C,"dose: 100.0 mg/kg/injection, schedule: Q01DX009 (ip), vehicle: Klucel (hydroxypropylcellulose) (HPC)",120 % of control
same,T/C,"dose: 100.0 mg/kg/injection, schedule: Q01DX009 (ip), vehicle: saline with Tween-80",109 % of control
same,T/C,"dose: 100.0 mg/kg/injection, schedule: Q04DX003 (ip), vehicle: Klucel (hydroxypropylcellulose) (HPC)",95 % of control [5 of 6 alive]
same,survivor count,"dose: 200.0 mg/kg/injection, schedule: Q04DX003 (ip), vehicle: Klucel (hydroxypropylcellulose) (HPC)",3 of 6
same,survivor count,"dose: 400.0 mg/kg/injection, schedule: Q04DX003 (ip), vehicle: Klucel (hydroxypropylcellulose) (HPC)",3 of 6
Cn1cc(N(CCCl)CCCl)c(=O)[nH]c1=O,T/C,"dose: 0.14 mg/kg/injection, schedule: Q01DX009 (ip), vehicle: saline",118 % of control
same,T/C,"dose: 0.21 mg/kg/injection, schedule: Q01DX009 (ip), vehicle: saline",118 % of control
same,T/C,"dose: 0.33 mg/kg/injection, schedule: Q01DX009 (ip), vehicle: saline",194 % of control
same,T/C,"dose: 0.4 mg/kg/injection, schedule: Q04DX003 (ip), vehicle: saline",127 % of control
same,T/C,"dose: 0.5 mg/kg/injection, schedule: Q01DX009 (ip), vehicle: saline",215 % of control
same,T/C,"dose: 0.58 mg/kg/injection, schedule: Q01DX009 (ip), vehicle: saline",180 % of control
same,T/C,"dose: 0.76 mg/kg/injection, schedule: Q01DX009 (ip), vehicle: saline",195 and 200 % of control
same,T/C,"dose: 0.8 mg/kg/injection, schedule: Q04DX003 (ip), vehicle: saline",227 % of control
same,T/C,"dose: 0.89 mg/kg/injection, schedule: Q01DX001 (ip), vehicle: saline",110 % of control
same,T/C,"dose: 1.05 mg/kg/injection, schedule: Q04DX003 (ip), vehicle: saline",160 % of control
same,T/C,"dose: 1.1 mg/kg/injection, schedule: Q01DX001 (ip), vehicle: saline",125 % of control
same,T/C,"dose: 1.16 mg/kg/injection, schedule: Q01DX009 (ip), vehicle: saline","213, 254, 255 % of control"
same,T/C,"dose: 1.19 mg/kg/injection, schedule: Q01DX001 (ip), vehicle: saline",109 % of control
same,T/C,"dose: 1.6 mg/kg/injection, schedule: Q04DX003 (ip), vehicle: saline",180 and 250 % of control
same,T/C,"dose: 1.74 mg/kg/injection, schedule: Q01DX009 (ip), vehicle: saline",195 and 254 % of control
same,T/C,"dose: 1.79 mg/kg/injection, schedule: Q01DX001 (ip), vehicle: saline","109, 135, 141 % of control"
same,T/C,"dose: 2.33 mg/kg/injection, schedule: Q01DX009 (ip), vehicle: saline",125 % of control
same,T/C,"dose: 2.4 mg/kg/injection, schedule: Q04DX003 (ip), vehicle: saline",210 % of control
same,T/C,"dose: 2.6 mg/kg/injection, schedule: Q01DX001 (ip), vehicle: saline",150 % of control
same,T/C,"dose: 2.68 mg/kg/injection, schedule: Q01DX001 (ip), vehicle: saline",131 % of control
same,T/C,"dose: 3.4 mg/kg/injection, schedule: Q01DX009 (ip), vehicle: saline",105 % of control
same,T/C,"dose: 3.59 mg/kg/injection, schedule: Q01DX001 (ip), vehicle: saline",110 % of control
same,survivor count,"dose: 5.2 mg/kg/injection, schedule: Q01DX009 (ip), vehicle: saline",6 of 6
same,survivor count,"dose: 7.8 mg/kg/injection, schedule: Q01DX009 (ip), vehicle: saline",6 of 6
